In the supplement of paper PMC12819154, “High-throughput peptide-centric local stability assay extends protein–ligand identification to membrane proteins, tissues and bacteria” (Nature Structural & Molecular Biology, 2025):
The other results are listed elsewhere or left out. Most values lie at the level of the controls, where differences are scatter.

By UniProt entry, the sequences of proteins in these tests, tags left out. Where a name states a change or a piece, a line headed by the entry shows the natural chain unless it says otherwise.
UniProt P40692: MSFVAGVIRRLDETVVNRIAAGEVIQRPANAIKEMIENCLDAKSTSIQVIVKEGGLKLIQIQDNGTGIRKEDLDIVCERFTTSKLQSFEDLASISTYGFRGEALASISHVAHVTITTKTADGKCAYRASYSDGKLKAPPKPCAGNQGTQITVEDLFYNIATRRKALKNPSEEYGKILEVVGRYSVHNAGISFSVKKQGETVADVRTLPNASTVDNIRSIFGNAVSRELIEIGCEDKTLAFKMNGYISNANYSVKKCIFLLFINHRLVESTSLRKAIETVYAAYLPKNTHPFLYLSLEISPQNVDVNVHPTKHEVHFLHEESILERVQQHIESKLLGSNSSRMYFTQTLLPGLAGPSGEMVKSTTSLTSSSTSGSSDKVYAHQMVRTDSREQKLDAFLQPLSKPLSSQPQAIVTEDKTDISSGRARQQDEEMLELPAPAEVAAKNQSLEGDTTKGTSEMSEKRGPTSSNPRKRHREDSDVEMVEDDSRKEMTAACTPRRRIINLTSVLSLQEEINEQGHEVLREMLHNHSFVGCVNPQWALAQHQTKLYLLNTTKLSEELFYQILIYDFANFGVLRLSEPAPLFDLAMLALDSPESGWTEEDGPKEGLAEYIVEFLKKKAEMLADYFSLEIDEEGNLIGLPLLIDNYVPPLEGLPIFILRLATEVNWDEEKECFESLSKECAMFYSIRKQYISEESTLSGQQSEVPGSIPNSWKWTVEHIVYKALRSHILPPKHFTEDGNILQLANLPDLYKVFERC
UniProt P38935: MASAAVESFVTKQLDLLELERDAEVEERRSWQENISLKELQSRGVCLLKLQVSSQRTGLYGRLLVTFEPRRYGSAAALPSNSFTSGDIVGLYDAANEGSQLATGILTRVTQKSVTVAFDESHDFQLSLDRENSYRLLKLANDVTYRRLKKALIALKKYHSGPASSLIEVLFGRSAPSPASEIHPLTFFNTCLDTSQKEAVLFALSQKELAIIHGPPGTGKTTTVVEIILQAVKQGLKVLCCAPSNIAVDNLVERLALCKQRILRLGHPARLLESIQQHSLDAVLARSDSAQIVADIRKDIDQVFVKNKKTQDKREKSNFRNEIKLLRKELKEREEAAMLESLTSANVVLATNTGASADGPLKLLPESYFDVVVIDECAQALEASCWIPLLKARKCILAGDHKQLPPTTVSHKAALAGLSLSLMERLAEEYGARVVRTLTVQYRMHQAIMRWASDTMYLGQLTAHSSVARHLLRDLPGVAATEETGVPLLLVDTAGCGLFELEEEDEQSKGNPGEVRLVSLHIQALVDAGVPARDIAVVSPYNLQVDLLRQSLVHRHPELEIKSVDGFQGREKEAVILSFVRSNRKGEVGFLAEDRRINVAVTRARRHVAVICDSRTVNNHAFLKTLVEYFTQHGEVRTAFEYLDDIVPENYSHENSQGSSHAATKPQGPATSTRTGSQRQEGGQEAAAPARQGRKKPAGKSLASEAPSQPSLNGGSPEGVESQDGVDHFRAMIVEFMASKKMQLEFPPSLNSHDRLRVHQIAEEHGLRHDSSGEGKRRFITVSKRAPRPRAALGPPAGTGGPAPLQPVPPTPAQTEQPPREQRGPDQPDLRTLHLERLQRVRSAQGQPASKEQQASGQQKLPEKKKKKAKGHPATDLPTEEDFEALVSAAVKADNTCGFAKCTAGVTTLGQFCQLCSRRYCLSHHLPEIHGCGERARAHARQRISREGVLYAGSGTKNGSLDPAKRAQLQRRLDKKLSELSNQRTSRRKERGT
UniProt P30281: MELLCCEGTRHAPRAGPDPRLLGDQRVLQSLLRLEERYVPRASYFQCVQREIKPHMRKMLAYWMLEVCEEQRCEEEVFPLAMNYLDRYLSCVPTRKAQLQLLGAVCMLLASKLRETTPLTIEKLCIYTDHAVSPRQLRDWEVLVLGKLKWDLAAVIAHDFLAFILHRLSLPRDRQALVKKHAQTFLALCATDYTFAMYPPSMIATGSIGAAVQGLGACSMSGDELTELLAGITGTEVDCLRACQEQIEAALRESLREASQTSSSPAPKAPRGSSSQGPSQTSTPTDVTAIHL
UniProt P39687: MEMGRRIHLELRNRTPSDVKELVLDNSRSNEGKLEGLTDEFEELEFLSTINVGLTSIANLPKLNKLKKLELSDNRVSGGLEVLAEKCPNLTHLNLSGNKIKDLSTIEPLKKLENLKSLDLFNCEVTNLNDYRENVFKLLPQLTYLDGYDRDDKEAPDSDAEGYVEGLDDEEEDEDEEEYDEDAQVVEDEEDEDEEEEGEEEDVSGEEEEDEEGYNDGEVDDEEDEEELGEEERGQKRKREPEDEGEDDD
UniProt P45973, whole entry: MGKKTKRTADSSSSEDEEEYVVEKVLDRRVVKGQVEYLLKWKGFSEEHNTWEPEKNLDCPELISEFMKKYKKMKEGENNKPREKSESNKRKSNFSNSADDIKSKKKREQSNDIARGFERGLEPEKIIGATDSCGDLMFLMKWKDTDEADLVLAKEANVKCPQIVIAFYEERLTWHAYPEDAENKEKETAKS
UniProt P30084: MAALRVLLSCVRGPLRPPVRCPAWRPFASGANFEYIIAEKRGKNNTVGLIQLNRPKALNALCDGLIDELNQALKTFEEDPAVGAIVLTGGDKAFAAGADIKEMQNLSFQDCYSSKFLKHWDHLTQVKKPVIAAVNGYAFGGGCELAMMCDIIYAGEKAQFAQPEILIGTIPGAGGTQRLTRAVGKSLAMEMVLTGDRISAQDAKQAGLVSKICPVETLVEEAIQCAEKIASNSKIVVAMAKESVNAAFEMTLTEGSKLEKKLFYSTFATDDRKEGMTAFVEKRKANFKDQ
UniProt P35573: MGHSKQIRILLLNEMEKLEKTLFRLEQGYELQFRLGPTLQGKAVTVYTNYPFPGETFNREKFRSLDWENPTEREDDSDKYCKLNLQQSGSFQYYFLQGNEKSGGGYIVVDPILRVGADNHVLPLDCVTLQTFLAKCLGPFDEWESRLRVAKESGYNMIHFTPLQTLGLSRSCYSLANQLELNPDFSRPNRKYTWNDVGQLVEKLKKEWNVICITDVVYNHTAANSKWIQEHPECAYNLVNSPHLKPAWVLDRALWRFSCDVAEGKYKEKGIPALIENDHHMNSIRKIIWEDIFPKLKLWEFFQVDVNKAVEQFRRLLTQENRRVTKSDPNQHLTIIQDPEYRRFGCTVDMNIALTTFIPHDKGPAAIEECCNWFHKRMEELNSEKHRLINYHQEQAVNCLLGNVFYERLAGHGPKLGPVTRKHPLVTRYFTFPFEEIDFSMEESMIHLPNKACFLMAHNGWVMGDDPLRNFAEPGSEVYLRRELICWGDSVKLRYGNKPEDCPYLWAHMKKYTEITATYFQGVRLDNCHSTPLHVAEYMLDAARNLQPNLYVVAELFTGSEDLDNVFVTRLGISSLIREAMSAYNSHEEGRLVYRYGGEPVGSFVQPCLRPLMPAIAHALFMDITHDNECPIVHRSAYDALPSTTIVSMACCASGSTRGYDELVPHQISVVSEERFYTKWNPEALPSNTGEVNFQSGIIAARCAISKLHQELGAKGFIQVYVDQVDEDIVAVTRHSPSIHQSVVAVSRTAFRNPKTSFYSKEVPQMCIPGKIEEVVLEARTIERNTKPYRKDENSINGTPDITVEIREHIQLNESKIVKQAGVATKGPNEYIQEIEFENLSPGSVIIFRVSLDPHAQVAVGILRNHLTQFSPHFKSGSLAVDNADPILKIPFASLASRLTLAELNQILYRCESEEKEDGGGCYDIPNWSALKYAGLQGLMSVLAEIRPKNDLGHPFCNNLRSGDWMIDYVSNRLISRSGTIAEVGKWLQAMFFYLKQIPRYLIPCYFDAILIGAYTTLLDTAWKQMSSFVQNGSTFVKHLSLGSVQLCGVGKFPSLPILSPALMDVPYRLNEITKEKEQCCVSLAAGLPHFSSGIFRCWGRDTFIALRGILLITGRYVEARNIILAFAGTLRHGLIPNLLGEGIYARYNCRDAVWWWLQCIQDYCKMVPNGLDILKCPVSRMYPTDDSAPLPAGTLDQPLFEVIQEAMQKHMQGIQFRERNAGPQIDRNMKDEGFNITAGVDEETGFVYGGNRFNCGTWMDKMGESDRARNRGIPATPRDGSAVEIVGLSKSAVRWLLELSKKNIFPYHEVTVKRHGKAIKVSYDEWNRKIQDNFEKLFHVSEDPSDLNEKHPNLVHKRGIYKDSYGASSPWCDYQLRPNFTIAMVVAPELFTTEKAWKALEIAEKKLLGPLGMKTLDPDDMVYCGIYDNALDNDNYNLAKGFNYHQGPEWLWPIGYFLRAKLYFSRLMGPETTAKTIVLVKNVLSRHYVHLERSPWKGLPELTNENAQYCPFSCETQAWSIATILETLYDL
UniProt P30566: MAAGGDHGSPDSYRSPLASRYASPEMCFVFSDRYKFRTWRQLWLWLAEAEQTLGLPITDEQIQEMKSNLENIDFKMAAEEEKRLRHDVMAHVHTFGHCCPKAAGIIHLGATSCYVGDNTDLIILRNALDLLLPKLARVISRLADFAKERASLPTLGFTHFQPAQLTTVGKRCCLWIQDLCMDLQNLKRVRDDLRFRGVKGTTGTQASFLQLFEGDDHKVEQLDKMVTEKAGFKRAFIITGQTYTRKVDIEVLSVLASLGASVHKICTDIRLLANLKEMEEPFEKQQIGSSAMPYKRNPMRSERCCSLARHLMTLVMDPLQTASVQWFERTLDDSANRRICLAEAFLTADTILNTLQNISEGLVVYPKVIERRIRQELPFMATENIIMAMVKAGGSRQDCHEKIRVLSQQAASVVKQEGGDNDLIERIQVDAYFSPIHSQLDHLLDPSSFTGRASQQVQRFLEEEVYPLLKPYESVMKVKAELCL
UniProt P29590: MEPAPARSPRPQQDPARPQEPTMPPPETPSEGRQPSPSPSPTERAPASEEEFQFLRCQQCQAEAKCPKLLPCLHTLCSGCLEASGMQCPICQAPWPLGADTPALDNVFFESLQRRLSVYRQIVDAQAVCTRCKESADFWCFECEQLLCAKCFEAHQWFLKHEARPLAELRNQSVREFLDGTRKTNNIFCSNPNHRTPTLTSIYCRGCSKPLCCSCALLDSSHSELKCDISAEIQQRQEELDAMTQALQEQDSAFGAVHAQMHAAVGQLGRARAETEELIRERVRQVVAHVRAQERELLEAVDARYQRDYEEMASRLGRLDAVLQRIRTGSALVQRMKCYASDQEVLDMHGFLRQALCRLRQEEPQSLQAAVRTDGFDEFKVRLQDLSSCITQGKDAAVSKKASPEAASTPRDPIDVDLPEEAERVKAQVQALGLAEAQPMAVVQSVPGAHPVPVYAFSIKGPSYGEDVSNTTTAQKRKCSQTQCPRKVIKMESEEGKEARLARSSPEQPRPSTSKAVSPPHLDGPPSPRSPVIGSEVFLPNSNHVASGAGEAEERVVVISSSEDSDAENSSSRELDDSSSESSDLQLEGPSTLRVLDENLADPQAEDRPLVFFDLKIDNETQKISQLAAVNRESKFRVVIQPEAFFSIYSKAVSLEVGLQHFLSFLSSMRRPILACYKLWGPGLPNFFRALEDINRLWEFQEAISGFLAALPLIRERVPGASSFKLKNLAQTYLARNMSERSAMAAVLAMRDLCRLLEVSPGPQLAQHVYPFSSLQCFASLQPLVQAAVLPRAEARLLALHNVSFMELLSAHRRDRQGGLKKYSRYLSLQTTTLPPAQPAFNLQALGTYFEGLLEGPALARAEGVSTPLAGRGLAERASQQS
UniProt P35237: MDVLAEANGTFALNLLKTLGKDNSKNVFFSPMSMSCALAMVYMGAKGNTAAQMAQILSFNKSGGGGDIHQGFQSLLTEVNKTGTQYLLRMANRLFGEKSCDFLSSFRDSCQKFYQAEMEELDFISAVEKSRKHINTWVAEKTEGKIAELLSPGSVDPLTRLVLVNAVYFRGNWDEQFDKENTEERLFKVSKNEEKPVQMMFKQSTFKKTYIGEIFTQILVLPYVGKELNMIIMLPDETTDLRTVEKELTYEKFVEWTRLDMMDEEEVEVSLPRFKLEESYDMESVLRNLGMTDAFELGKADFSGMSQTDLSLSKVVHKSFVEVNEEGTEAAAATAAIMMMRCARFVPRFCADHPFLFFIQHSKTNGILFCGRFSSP
UniProt P36575, whole entry: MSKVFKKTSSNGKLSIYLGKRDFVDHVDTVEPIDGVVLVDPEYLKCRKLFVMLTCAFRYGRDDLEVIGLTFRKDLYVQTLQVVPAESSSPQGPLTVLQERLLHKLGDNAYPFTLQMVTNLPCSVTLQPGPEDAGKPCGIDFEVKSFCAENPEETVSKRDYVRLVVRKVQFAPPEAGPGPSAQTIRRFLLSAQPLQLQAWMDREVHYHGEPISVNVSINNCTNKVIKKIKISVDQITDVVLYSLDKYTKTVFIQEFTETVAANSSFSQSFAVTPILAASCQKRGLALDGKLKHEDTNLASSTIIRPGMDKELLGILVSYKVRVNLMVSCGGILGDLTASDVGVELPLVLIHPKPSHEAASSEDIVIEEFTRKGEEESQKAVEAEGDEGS

Each target was assayed with Cc1nc(Nc2ncc(C(=O)Nc3c(C)cccc3Cl)s2)cc(N2CCN(CCO)CC2)n1 [dasatinib] (assay: log2 fold change of tryptic peptide abundance, ligand vs vehicle (limited proteolysis) (log2 ratio); higher = more trypsin-susceptible (destabilized)). Conditions: ligand concentration: 5 uM; sample: K562 cleared lysate.

| Target | log2 fold change |
| --- | --- |
| PSMB10 (peptide sequence: TLSSPTEPVKR, peptide start residue: 227) (UniProt P40306) | 0.481 |
| PCSK6 (peptide sequence: QAFEYGIK, peptide start residue: 324) (UniProt P29122) | 0.439 |
| UniProt P35030 (peptide sequence: DTLDNDIMLIK, peptide start residue: 159) | -0.0128 |
| MLH1 (peptide sequence: CIFLLFINHR, peptide start residue: 256) (UniProt P40692) | -0.429 |
| IGHMBP2 (peptide sequence: TLVEYFTQHGEVR, peptide start residue: 625) (UniProt P38935) | 0.117 |
| ELF1 (peptide sequence: ESEDHLKENTEK, peptide start residue: 573) (UniProt P32519) | 0.771 |
| CCND3 (peptide sequence: LCIYTDHAVSPR, peptide start residue: 124) (UniProt P30281) | -0.167 |
| ANP32A (peptide sequence: VSGGLEVLAEKCPNLTHLNLSGNK, peptide start residue: 76) (UniProt P39687) | 0.0684 |
| RPS19 (peptide sequence: DLDRIAGQVAAANKK, peptide start residue: 130) (UniProt P39019) | -1.03 |
| CBX5 (peptide sequence: WKGFSEEHNTWEPEK, peptide start residue: 41) (UniProt P45973) | -0.465 |
| NCAPD3 (peptide sequence: LCLQHEDLAKK, peptide start residue: 930) (UniProt P42695) | -0.501 |
| DLST (peptide sequence: AKPAEAPAAAAPK, peptide start residue: 153) (UniProt P36957) | 0.0299 |
| STAT1 (peptide sequence: QDWEHAANDVSFATIR, peptide start residue: 41) (UniProt P42224) | 0.102 |
| ALDH1B1 (peptide sequence: VAFTGSTEVGHLIQK, peptide start residue: 258) (UniProt P30837) | 0.235 |
| HSPA4 (peptide sequence: DKLSGEYEK, peptide start residue: 630) (UniProt P34932) | 0.135 |
| RPL13A (peptide sequence: MNTNPSRGPYHFR, peptide start residue: 62) (UniProt P40429) | -0.09 |
| ECHS1 (peptide sequence: NNTVGLIQLNRPK, peptide start residue: 44) (UniProt P30084) | 0.319 |
| UniProt P41743 (peptide sequence: DLKLDNVLLDSEGHIK, peptide start residue: 378) | -0.203 |
| AGL (peptide sequence: HSPSIHQSVVAVSR, peptide start residue: 735) (UniProt P35573) | 0.435 |
| ADSL (peptide sequence: EMEEPFEK, peptide start residue: 277) (UniProt P30566) | -0.645 |
| VHL (peptide sequence: SLVKPENYR, peptide start residue: 168) (UniProt P40337) | 0.0894 |
| PML (peptide sequence: SSPEQPRPSTSK, peptide start residue: 504) (UniProt P29590) | -0.278 |
| UniProt P42677 (peptide sequence: KRLVQSPNSYFMDVK, peptide start residue: 22) | -0.681 |
| SERPINB6 (peptide sequence: SCDFLSSFR, peptide start residue: 99) (UniProt P35237) | 0.168 |
| UniProt P36575 (peptide sequence: YGRDDLEVIGLTFR, peptide start residue: 59) | 0.209 |

Part of the list above, tab-delimited.
Target	log2 fold change
PCSK6 (peptide sequence: QAFEYGIK, peptide start residue: 324) (UniProt P29122)	0.439
UniProt P41743 (peptide sequence: DLKLDNVLLDSEGHIK, peptide start residue: 378)	-0.203
